Laboratory results: PubChem BioAssay AID602196 (INSERM, 2012)

Purpose: 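Knock-downs that protect lung cancer cells from cisplatin or sensitise them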
Cells: human A549 lung cancer cells
Reagents: siRNA pair against human genes
Time to read-out: 48 h transfection before cisplatin; time from cisplatin to read-out not stated
Challenge: cisplatin at a dose killing half of control-siRNA cells; exact dose and duration not given
Read-out: 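Shift in cisplatin death relative to control siRNA, from -50 (all cells die) to +50 (no cells die); siRNAs harmful on their own scored 0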
Direction: two-siRNA summed score (-2 to +2): higher = both siRNAs protect from cisplatin killing; -2 means both sensitise; mean protection from cisplatin (shift in death) and protection from cisplatin (shift in death), siRNA C and protection from cisplatin (shift in death), siRNA D: higher = protection from cisplatin killing
Rule for the call: 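siRNAs harmful alone (LDH or WST-1) get 0; others get +1 for less and -1 for more cisplatin killing; genes are active when the two siRNAs give the same sign, summing to ±2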
Calls: active = both siRNAs shift cisplatin killing the same way; inactive = no consistent shift, or siRNA harmful alone
The deposit covers about 23,000 reagents; this is an unselected part. 455 of all reagents (2%) were called active. 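Active includes both protection and sensitisation; some change values fall well beyond the stated -50 to +50 range.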 Unmarked entries are inactive. The numbers tell different reagents against one gene apart. Not stated in the record: the amount of reagent.

gene | reagent no. | two-siRNA summed score (-2 to +2) | mean protection from cisplatin (shift in death) (%) | protection from cisplatin (shift in death), siRNA C (%) | protection from cisplatin (shift in death), siRNA D (%)
HLA-DRB3 | 1 | 0 | 10.3 | 6.3 | 14.2
ZDHHC13 | 1 | 1 | 8.6 | 5.4 | 11.9
SYN1 | 1 | 0 | 23.7 | 54.5 | -7.1
TTC6 | 1 | 0 | -2.3 | -6.6 | 2
TTC6 | 2 | 0 | 9.8 | 15.2 | 4.4
GPR101 | 1 | 0 | 3.7 | -14.5 | 21.8
GOLGA4 | 1 | -1 | -0.5 | 9.5 | -10.5
B3GNT5 | 1 | 0 | 1.3 | -0.8 | 3.5
PHLDA2 | 1 | 0 | 1.9 | 1.3 | 2.4
LOC134111 | 1 | 0 | -6.9 | -4.3 | -9.5
PCGF1 | 1 | -1 | -13.1 | -22.8 | -3.4
SSC4D | 1 | 0 | 15.1 | 4.3 | 25.9
METTL14 | 1 | 0 | 2 | 10.4 | -6.4
HAPLN1 | 1 | 1 | 20 | 37 | 3
ZC3H15 | 1 | 0 | 3.2 | 8 | -1.6
CDC40 | 1 | 0 | 5 | 9.4 | 0.6
PHF20 | 1 | 0 | -4 | -8.6 | 0.6
ZNF92 | 1 | 1 | 15.2 | 10.8 | 19.6
IGFN1 | 1 | 0 | 6.4 | 10.6 | 2.2
PLS1 | 1 | 0 | 5.1 | 2.9 | 7.4
PBDC1 | 1 | 0 | 7.8 | 25.7 | -10
C8orf34 | 1 | 1 | 8.8 | 12.8 | 4.9
STC1 | 1 | 0 | 9.8 | 7.3 | 12.3
OTX1 | 1 | 1 | 7.4 | -2.8 | 17.6
OR56A1 | 1 | 0 | 13.5 | 17.2 | 9.9
SPDYE3 | 1 | 0 | 11.8 | 8.1 | 15.5
ZNF830 | 1 | 0 | 4 | 5.6 | 2.4
IFIT1B | 1 | 0 | 11.4 | 14.6 | 8.2
ARL6IP5 | 1 | 0 | 16 | 24.6 | 7.5
LOC442399 | 1 | 0 | -0.6 | 5.5 | -6.7
STX1B | 1 | 0 | 11.8 | 12.3 | 11.3
LOC196996 | 1 | 0 | 2 | -4.6 | 8.5
TYK2 | 1 | 0 | 4.7 | 8 | 1.5
S100A3 | 1 | 1 | 14.7 | 17.1 | 12.3
PHKG1 | 1 | 2 (active) | 23.9 | 30 | 17.9
OR4N5 | 1 | 0 | -3.9 | -5.9 | -1.9
FLJ35107 | 1 | 0 | -0.2 | 0.5 | -0.8
BID | 1 | 1 | 5.8 | 14.4 | -2.8
ZNF579 | 1 | 0 | 3 | -6.6 | 12.5

6 of these entries in another layout.
gene,reagent no.,two-siRNA summed score (-2 to +2),mean protection from cisplatin (shift in death) (%),"protection from cisplatin (shift in death), siRNA C (%)","protection from cisplatin (shift in death), siRNA D (%)"
ZNF92,1,1,15.2,10.8,19.6
IGFN1,1,0,6.4,10.6,2.2
PLS1,1,0,5.1,2.9,7.4
PBDC1,1,0,7.8,25.7,-10
C8orf34,1,1,8.8,12.8,4.9
STC1,1,0,9.8,7.3,12.3
